In all, about 52,000 sequences went through this assay and about 210 (0.4%) were called active.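 Rule for the calls: active = gene whose silencing raises cell survival under the drug, median off-target-corrected z-score across its silencing RNAs 2 or more; inactive = the rest.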 The list shows a part of the results.
Test: Resistance to Poly (ADP-Ribose) Polymerase inhibitor: Gene Identification via Genome-wide siRNA Screen
Conditions: mouse BRCA2 R2336H ES cells, olaparib, CellTiter-Glo viability; stronger effect = higher value
How it was run: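 Genome-wide siRNA screen (3 siRNAs/gene, 20 nM) in mouse ES cells carrying hypomorphic BRCA2 R2336H; olaparib 500 nM added 48 h post-transfection, CellTiter-Glo viability 72 h later. Normalized to plate-median negative control; MAD z-scores, gene median, seed-adjusted.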

Row | Sequence | z-score
1 | GGAUUUUUCAACUUAACGUTT against 1110007L15Rik | inactive: -0.108
2 | GGACAGGAACCAAAAUGAGTT against Sfxn2 | inactive: -0.342
3 | GGAAGAAGAAGAUAAAGAATT against AF155546 | inactive: -1.65
4 | GGAAGGAAUUGGUUACCUATT against 4933440J22Rik | inactive: -1.04
5 | GGAAGAAUACCAAAAGGUUTT against Msra | inactive: -0.206
6 | GCAACAUUGUAGAUUGAUATT against 2510049I19Rik | inactive: -1.06
7 | GCUACUACGGCCAUUGUGATT against Fbln2 | inactive: -1.75
8 | GGAUGAAGACCUUUCGGAGTT against Mapk8ip | inactive: -0.374
9 | GGCUGUUUUUACCCUACUUTT against V1rg1 | inactive: -1.25
10 | GGCUCCAUUAAACUAAUCATT against Olfr1102 | inactive: 1.47
11 | GCCAUGUUUCUACUGAUAGTT against 1700007K09Rik | inactive: -1.02
12 | AGAGAGACUUAUGUCUUUUTT against 2610109H07Rik | inactive: -0.561
13 | CCCUGUUUCUUCUCAAAGUTT against Mrgpra2 | inactive: 1.96
14 | GGCAUUUAUUACUACCUGATT against Lancl1 | inactive: 1.28
15 | GCCUAAUGCCAACUCACAATT against Samd7 | inactive: -0.863
16 | GGAAGGACAGCCUUUUGAUTT against Cyp2j13 | inactive: 0.0214
17 | GGUUGGCUUCCUUAUCUUGTT against Cyp7b1 | inactive: -0.131
18 | CGACCAAUUAUAGUUUAUGTT against Zranb1 | inactive: 1.38
19 | GCUGGUAUCAGGAAUACCUTT against Cacna1e | inactive: 2.07
20 | CGUAACUUUUUGCAUUUGATT against Anktm1 | inactive: 0.312
21 | GGAGCUCAUCUACAUGCACTT against 1300012G16Rik | inactive: -0.375
22 | GGUGCUACAGAACGUAUGCTT against Fh1 | inactive: 1.33
23 | CCCUUAAUAGACUUCUGAUTT against 2810405I11Rik | inactive: 1.53
24 | CCCUUCAACUACAUGUUUUTT against Aicda | inactive: 1.35
25 | GGAAUUCAGCUUAAAACUGTT against Ctsl | inactive: 1.81
26 | GCUGGGUUAUGAGAUUUCUTT against Tenc1 | inactive: -1.49

Row | Sequence | z-score
27 | GGCCAACUGCCAAUUUGUGTT against Rnf10 | inactive: -0.478
28 | CGUGACCACAACUCAAGAATT against 9030625A04Rik | inactive: 1.58
29 | GGAUCCUAGCCUUUUAUCATT against C030018L16Rik | inactive: 1.22
30 | CCGAGUAAUUGGAAGUGGUTT against Ldh1 | inactive: 1.02
31 | CCGCCUCUUUGAAGCCCAATT against 1110004D19Rik | inactive: -1.73
32 | GGAAUCAAAAUCUUUGAUGTT against Dab1 | inactive: 0.584
33 | GGAUUUGGAAAUAUUAGAGTT against E330021D16Rik | inactive: 0.602
34 | GGACUACAGUCAUUAUUCATT against 4930518F03Rik | inactive: 0.681
35 | GGUCUGUUCUGUACUGAAGTT against Usmg4 | inactive: -1.14
36 | GGUUCAGAAGAGCUGAUGATT against Ezh2 | inactive: 0.531
37 | GCAAUCCAUACAAGCUGUATT against Olfr1134 | inactive: -0.726
38 | GGGAAUUAUGGGCUUACCGTT against 4931414P19Rik | inactive: -2.88
39 | GGUCAAUCAAUCGUACGAATT against Trar1 | inactive: -0.242
40 | GCUGCGACAAUUCAAUAUCTT against Rdh8 | inactive: -0.377
41 | CCACUAAAAUCUUACUGGATT against Scn7a | inactive: 1.85
42 | CCUGACAAAAGAACCUUAUTT against Grit | inactive: 0.24
43 | GGCGAUUAUGGAAAAAUGUTT against Osbpl11 | inactive: -0.782
44 | GCAAGUCAGACUCCUAGUGTT against 4930563E19Rik | inactive: 2.35
45 | GCUUAUUGUUCAACCCAACTT against Dpp3 | inactive: 0.839
46 | GGAAGGAUGCUUCCUUGGATT against Stmn3 | inactive: 0.577
47 | GAACAAUGCAGAGACAAUUTT against Olfr176 | inactive: -0.342
48 | GCCUCAUGUUGACAGUGUCTT against 2310045B01Rik | inactive: 1.88
49 | CGAUGUCUGAGUUCAACACTT against Gclc | inactive: 0.206
50 | GGGAAUACGUGUACUGAAGTT against Ttc17 | inactive: -1.8
51 | GCAGAACUUGACCACUGCCTT against Defb2 | inactive: 0.39
52 | CGGGAAGCAUCACUAUUUCTT against 5830411E10Rik | inactive: -2.01

Row | Sequence | z-score
53 | GUUGGUAAAGGUCCUUGCCTT against D17Wsu155e | inactive: -1.02
54 | GGUAUUCGAAGCAUACAAUTT against Pdha2 | inactive: -0.198
55 | CCUCCUAUUUGCUUCAUUUTT against Pscdbp | inactive: -0.434
56 | GGAGGAAGAGAACUUCGUGTT against Fstl3 | inactive: 0.0275
57 | GGAUCUAGAACAGAAAAUGTT against Stat3 | inactive: 0.505
58 | GGAAAUGGCCUCCAUGAGATT against Krt1-14 | inactive: 0.261
59 | CCUUACAUGUUGACUACCCTT against Rnase13 | inactive: -0.327
60 | GCAGUAUGGCUACCUACCUTT against Mmp14 | inactive: -1.86
61 | GGCCUUUUAUUAGUGAGGGTT against 4932435O22Rik | inactive: 0.016
62 | GGUGGUUUUGUUUCUUUUUTT against 4921526G09Rik | inactive: 1.04
63 | GGGUAAACACCCAUUUAGCTT against Lbx2h | inactive: 1.15
64 | GGACACUUCCAAUGAGUCCTT against Chrm4 | inactive: -0.178
65 | GGAUCAGUAGCAUUAACAATT against Tcf7l2 | inactive: -1.26
66 | GCCAGGGUAUUAAUGCCUCTT against Ebi2 | inactive: -0.606
67 | CCGACAUGUGGACAAAUGATT against Tas2r117 | inactive: -0.205
68 | CCUCAAGAUAAACCGACAATT against Bard1 | inactive: -1.47
69 | GCGGGCUGAAGAAGAAUUGTT against Ppp1r12c | inactive: 0.25
70 | CCCUUUCAUUGUGCAUUAATT against 3110052N05Rik | inactive: -2.21
71 | GGAUGAGUACACCUUUGUGTT against Chdh | inactive: 1.95
72 | CGAUAAAGGCCAAAUACUGTT against Ssb | inactive: -0.521
73 | GGGUGAACUCGGACAUUGATT against 1700001L23Rik | inactive: -1.62
74 | GGAAACUUCAGACUAGUCATT against Eif2s3y | inactive: -0.802
75 | GCUGAUCCGAUACAUCGACTT against Cuedc2 | inactive: -1.36
76 | GGCUUAAUGUUGCUUCAGATT against Aven | inactive: 0.96
77 | GCGCAUACGAUAUGUGACCTT against H2-Ab1 | inactive: 1.15
78 | GGAACGAAUGUUCUUCGGUTT against Dst | inactive: 1.05

Six entries picked at random from those above:
Row | Sequence | z-score
5 | GGAAGAAUACCAAAAGGUUTT against Msra | inactive: -0.206
69 | GCGGGCUGAAGAAGAAUUGTT against Ppp1r12c | inactive: 0.25
52 | CGGGAAGCAUCACUAUUUCTT against 5830411E10Rik | inactive: -2.01
25 | GGAAUUCAGCUUAAAACUGTT against Ctsl | inactive: 1.81
15 | GCCUAAUGCCAACUCACAATT against Samd7 | inactive: -0.863
4 | GGAAGGAAUUGGUUACCUATT against 4933440J22Rik | inactive: -1.04

Following part:

Row | Sequence | z-score
79 | GGAGUCUCAGAACAGCACATT against C530005A01Rik | inactive: 1.14
80 | GGCCACAGGAAGUCAGUUATT against Gsk3b | inactive: -2.3
81 | CCUUGUAACUGAGGCCCGATT against Olfr120 | inactive: -0.658
82 | GGAGCUAUAAUUAACAAGATT against Adam6 | inactive: -0.0669
83 | GGCACAUGUCAGAAUAGGCTT against 1110001A05Rik | inactive: -0.121
84 | GGGCAUCCUGCUAGGCUUUTT against Adcy8 | inactive: -1.31
85 | GGGAGAAUCGAACUAUAAATT against 1300006N24Rik | inactive: -0.0425
86 | GCAGUCGAUGUCAAGGUUATT against Plekhf2 | inactive: -1.19
87 | GGAAACCAGUUGCUUAAGUTT against 4933404M02Rik | inactive: -0.0625
88 | GGAAAAAGCUACUGAGUCCTT against Cx3cl1 | inactive: 0.144
89 | GGAACAGAAACUGAAGGAUTT against Cyln2 | inactive: 0.128
90 | GGUUCAUUCUCUGCAUUAATT against Rpp40 | inactive: -1.47
91 | GCGACCAGCUCUUUUAUACTT against Plod1 | inactive: -0.132
92 | GGGUGAGCAAGGUUGUAAUTT against Pdgfb | inactive: -0.491
93 | GCCACGCAAUAAAGCAUCUTT against Sars1 | inactive: -1.99
94 | GGAGUCUCCUUAUAUUAAUTT against Alcam | inactive: -0.549
95 | GGAAGAGAUCGAUGAGACUTT against Cyp3a41 | inactive: -1.31
96 | GGAAAAGGAAGAACUGAUUTT against Sptlc1 | inactive: -0.0342
97 | GCCUUGUGGGAAGCAAAAATT against Pcyt2 | inactive: 0.779
98 | GGGUCAAUCAGAAGCUAGGTT against Creb3l4 | inactive: 0.16
99 | GGUCCUACCUCAACAUCUGTT against Cap2 | inactive: 0.427
100 | CCCGUGCCUUCCUUAAAGCTT against 9030405D14Rik | inactive: 0.576
101 | GGGACUUGUUGAGUUUAUATT against Ssa2 | inactive: -0.00613
102 | GGGAGAUCUCCAACACCAATT against B230317C12Rik | inactive: 1.46
103 | GCAUGUUUUGGUGUAUAGUTT against Arl4 | inactive: -0.633

Reference: PubChem BioAssay AID1347423 (Functional Genomics Laboratory (NCATS/FGL), 2020)
